# The supplement of paper PMC10849652
# Amino acid sequences for entries named in this document (tags omitted). A change or cut given only in a name is not applied to a line headed by its entry.
# UniProt P61086: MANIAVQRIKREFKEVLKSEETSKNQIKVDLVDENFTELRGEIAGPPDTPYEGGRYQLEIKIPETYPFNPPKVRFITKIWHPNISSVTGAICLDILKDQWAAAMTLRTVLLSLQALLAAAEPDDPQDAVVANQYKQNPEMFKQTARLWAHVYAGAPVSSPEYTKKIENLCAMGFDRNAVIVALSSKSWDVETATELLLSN
# UniProt Q9Y385: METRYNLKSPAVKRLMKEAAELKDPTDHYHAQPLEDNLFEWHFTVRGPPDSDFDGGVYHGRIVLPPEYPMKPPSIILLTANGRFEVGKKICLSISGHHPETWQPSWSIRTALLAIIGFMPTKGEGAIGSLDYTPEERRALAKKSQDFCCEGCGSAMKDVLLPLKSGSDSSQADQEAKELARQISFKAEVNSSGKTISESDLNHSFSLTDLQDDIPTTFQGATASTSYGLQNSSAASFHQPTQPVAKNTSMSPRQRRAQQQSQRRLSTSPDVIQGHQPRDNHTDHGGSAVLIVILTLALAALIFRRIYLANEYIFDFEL
# UniProt Q13454: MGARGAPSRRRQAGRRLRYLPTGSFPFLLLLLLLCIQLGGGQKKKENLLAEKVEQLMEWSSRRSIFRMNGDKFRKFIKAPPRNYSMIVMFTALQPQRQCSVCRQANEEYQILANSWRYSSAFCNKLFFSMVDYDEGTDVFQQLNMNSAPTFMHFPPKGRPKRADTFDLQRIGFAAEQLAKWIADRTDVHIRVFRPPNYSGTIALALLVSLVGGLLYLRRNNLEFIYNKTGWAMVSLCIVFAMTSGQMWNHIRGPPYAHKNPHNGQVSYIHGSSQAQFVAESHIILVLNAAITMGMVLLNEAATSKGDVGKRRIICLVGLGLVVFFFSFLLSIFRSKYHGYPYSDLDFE
# UniProt P61077: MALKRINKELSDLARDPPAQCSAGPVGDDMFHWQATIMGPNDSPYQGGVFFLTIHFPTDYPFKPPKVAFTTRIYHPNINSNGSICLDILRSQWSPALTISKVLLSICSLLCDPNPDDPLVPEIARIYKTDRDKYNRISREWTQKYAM
# UniProt O43396: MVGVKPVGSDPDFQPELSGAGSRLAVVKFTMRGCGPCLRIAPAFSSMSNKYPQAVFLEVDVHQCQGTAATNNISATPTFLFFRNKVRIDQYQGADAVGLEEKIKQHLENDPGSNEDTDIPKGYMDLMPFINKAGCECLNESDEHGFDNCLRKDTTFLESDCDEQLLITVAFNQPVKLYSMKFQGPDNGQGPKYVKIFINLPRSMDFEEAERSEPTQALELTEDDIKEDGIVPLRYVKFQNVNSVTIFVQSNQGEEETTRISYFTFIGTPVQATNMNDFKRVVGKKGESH
# UniProt Q8N5M4: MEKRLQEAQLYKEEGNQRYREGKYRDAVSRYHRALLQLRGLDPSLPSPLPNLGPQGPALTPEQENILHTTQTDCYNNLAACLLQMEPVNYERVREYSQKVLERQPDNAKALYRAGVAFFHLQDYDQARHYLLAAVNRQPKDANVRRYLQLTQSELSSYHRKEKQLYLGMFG
# UniProt P43897: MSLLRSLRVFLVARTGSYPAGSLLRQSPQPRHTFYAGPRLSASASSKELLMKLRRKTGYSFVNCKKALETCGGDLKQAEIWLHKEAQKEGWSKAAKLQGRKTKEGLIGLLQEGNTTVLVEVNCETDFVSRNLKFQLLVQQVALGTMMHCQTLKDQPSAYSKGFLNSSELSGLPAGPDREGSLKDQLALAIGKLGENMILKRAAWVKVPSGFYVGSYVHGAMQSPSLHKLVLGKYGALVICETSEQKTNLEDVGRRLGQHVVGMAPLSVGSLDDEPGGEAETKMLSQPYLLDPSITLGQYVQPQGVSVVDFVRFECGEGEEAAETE
# UniProt Q9NY65, whole entry, looked up: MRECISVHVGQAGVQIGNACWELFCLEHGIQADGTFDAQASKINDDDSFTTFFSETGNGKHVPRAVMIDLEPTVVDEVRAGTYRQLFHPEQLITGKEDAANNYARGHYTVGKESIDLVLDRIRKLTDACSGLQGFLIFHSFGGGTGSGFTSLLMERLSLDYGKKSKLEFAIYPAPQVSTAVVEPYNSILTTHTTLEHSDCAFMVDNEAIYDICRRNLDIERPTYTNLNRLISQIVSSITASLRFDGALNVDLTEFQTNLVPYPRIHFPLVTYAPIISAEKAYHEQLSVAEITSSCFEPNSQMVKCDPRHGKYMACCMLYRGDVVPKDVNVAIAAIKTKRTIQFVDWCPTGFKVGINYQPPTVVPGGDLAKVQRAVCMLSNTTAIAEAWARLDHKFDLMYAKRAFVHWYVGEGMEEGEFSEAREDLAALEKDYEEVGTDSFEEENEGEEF
# UniProt P10599: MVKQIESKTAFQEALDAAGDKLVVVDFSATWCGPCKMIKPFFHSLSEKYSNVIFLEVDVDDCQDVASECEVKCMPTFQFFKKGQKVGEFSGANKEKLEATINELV
# UniProt Q14157: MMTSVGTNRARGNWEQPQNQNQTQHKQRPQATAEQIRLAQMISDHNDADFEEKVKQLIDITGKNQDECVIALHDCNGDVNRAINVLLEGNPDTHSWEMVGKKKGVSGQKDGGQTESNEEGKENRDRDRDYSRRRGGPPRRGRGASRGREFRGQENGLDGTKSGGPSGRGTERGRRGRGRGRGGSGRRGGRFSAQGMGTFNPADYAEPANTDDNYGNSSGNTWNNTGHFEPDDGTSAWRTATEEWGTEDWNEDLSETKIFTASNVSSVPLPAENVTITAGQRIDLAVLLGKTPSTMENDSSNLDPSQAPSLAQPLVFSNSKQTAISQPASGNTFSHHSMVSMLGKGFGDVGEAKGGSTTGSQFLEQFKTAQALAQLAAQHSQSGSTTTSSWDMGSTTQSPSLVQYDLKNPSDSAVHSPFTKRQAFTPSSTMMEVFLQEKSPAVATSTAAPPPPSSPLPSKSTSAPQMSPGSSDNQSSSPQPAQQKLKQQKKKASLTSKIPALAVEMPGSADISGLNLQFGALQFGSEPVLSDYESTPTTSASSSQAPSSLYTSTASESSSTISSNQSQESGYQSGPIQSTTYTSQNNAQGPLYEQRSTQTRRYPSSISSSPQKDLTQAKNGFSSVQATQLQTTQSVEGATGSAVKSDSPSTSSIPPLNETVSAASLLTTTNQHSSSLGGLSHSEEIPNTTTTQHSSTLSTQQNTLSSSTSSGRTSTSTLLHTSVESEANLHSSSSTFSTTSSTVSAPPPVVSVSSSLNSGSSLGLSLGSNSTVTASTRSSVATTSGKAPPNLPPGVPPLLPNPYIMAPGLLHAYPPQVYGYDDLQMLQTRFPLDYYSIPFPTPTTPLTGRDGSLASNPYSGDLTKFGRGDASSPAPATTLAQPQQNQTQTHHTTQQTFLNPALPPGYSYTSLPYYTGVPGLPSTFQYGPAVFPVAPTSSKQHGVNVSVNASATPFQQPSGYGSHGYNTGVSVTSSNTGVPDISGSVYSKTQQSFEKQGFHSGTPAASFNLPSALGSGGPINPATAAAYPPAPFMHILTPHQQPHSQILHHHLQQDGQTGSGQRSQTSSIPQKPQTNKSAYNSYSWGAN
# UniProt P63279, whole entry, looked up: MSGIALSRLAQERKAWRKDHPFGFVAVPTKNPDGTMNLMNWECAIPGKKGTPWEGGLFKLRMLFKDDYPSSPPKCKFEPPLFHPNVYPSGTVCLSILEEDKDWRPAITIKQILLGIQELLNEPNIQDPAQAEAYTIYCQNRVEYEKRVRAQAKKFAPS
# UniProt Q96J42: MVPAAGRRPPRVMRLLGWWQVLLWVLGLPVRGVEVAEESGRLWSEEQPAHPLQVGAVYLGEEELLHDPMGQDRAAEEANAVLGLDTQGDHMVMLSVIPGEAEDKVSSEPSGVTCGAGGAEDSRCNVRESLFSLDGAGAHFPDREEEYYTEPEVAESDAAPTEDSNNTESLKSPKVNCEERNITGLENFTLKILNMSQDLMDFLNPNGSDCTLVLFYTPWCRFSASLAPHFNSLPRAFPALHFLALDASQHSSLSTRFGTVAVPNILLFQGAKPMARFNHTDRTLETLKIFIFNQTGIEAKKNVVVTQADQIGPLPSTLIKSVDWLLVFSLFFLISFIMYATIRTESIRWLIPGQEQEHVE
# UniProt Q9NV66: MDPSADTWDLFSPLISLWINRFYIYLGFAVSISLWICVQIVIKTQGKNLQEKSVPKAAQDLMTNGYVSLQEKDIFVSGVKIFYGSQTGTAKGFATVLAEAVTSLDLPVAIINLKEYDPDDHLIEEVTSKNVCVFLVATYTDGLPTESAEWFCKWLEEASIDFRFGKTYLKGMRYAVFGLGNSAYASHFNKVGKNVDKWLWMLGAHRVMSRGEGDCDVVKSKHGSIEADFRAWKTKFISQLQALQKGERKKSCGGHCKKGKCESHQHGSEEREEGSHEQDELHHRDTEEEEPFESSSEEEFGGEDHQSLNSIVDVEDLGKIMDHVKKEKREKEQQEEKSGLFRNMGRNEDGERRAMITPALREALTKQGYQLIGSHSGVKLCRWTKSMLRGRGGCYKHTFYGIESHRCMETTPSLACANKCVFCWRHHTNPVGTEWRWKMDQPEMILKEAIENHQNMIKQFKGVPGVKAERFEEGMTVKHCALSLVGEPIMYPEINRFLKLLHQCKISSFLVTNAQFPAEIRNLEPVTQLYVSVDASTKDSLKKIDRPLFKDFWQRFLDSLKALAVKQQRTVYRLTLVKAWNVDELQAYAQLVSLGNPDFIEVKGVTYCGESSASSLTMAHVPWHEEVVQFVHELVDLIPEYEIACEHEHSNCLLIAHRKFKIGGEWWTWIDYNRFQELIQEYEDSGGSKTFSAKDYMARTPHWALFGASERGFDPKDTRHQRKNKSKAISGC
# UniProt Q7Z7E8: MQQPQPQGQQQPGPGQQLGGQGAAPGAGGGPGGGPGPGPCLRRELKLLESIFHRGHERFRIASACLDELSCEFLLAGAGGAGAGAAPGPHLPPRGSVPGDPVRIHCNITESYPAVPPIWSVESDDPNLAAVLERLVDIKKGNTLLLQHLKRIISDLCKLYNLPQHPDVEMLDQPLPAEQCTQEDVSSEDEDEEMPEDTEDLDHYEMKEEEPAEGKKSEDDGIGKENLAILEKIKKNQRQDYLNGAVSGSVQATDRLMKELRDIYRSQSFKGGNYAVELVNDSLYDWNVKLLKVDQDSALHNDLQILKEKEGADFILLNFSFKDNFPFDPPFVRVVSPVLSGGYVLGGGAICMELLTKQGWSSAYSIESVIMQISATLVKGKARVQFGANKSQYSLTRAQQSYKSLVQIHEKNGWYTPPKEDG
# UniProt Q96CW5, whole entry, looked up: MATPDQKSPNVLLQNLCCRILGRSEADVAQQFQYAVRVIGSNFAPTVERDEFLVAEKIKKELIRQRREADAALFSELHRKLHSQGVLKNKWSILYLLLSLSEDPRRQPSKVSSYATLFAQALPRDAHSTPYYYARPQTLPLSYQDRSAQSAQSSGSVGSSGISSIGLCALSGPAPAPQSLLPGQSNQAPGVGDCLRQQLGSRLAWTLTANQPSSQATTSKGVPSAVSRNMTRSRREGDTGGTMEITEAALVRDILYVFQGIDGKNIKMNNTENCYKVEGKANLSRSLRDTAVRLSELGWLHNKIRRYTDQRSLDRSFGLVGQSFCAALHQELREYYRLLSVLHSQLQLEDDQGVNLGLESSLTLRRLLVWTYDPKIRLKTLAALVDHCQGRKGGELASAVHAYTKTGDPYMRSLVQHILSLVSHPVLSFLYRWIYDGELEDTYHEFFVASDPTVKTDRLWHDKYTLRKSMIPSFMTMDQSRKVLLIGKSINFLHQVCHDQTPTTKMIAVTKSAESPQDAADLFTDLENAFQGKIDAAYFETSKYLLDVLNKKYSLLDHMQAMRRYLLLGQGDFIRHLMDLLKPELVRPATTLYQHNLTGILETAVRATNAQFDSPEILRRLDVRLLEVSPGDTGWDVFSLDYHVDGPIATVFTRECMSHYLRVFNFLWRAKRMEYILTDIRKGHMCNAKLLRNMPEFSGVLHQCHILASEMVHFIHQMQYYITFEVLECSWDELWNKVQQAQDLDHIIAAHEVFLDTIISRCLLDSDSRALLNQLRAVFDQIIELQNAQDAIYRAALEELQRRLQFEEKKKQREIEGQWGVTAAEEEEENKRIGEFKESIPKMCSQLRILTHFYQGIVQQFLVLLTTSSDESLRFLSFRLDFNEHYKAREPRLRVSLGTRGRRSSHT
# The list shows a part of the results. Residues, ends and D or L forms follow the SMILES beside them. *: point of attachment. Cbz = O=C(OCc1ccccc1)*
# What was measured:
# Assay in all cases: log2 fold change, soluble protein after heating vs DMSO (PISA); higher = thermal stabilisation; K562 cells, 10 uM, 30 min; active = over 0.2 and 3.5 SD of the protein, either way, in both replicates (recomputed)
# erlotinib = compound: C#Cc1cccc(Nc2ncnc3cc(OCCOC)c(OCCOC)cc23)c1 [erlotinib]
# How it was run: (§1)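 Values are thermal stability changes relative to control samples and are taken from duplicates. They are stated as log2 fold changes. Before quantification by TMTpro 16plex LC-MS/MS with equalised channel sums, K562 cells at 2×10^6 cells/mL were treated with 10 μM compound for 30 min, heated in aliquots for 3 min across 48°C-58°C, pooled, extracted in PBS with 0.5% NP-40 at 4°C, and centrifuged at 21,000xg for 90 min to give the soluble supernatant.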
# [1] = compound: C/C(=N\NC(=O)C1=CC(=CC=C1)S(=O)(=O)N2CCOCC2)/C3=C(C=CC(=C3)Cl)O
# How it was run: as §1
# [2] = compound: C1=CC(=C(C=C1Cl)C2=NC3=NC=CN=C3C(=N2)NC4=CC=NC=C4)F
# How it was run: as §1
# [3] = compound: C1=CC(=CC=C1C2=NC3=C(N2)C=C(C=C3)C(=O)N)OC4=CC=C(C=C4)Cl
# How it was run: as §1
# [4] = compound: C1=CC2=C(C=CC(=C2)/C=C\3/C(=O)NC(=NCC4=CC=CS4)S3)N=C1
# How it was run: as §1
# [5] = compound: C1=CC2=NC=CN=C2C=C1/C=C/3\C(=O)NC(=O)S3
# How it was run: as §1
# [6] = compound: C1=CC=C(C=C1)C2=NC(=C(N2)C3=CC=NC=C3)C4=CC(=C(C=C4)Cl)O
# How it was run: as §1
# [7] = compound: C1=CC=C2C(=C1)C3=NNC4=CC=CC(=C43)C2=O
# How it was run: as §1
# [8] = compound: C1CCN(C1)C(=O)NC2=CC=CC(=C2)NC3=NC=C(C(=N3)NCCC4=CN=CN4)Br
# How it was run: as §1
# [9] = compound: C1CN(CCC1(CC2=CC=C(C=C2)Cl)N)C3=NC=NC4=C3C=CN4
# How it was run: as §1
# IRAK-1-4 Inhibitor I = compound: C1COCCN1CCN2C3=CC=CC=C3N=C2NC(=O)C4=CC(=CC=C4)[N+](=O)[O-] [IRAK-1-4 Inhibitor I]
# How it was run: as §1
# ibrutinib = compound: C=CC(=O)N1CCC[C@@H](n2nc(-c3ccc(Oc4ccccc4)cc3)c3c(N)ncnc32)C1 [ibrutinib]
# How it was run: as §1
# [10] = compound: CC(=O)c1cnc2ccc(-c3cc(Cl)c(O)c(Cl)c3)nc2c1N[C@H]1CC[C@H](CN(C)C)CC1
# How it was run: as §1
# ralimetinib = compound: CC(C)(C)Cn1c(N)nc2ccc(-c3[nH]c(C(C)(C)C)nc3-c3ccc(F)cc3)nc21 [ralimetinib]
# How it was run: as §1
# [11] = compound: CC(C)(O)CC(=O)NCCn1ccc2ncnc(Nc3ccc(Oc4cccc(C(F)(F)F)c4)c(Cl)c3)c21
# How it was run: as §1
# [12] = compound: CC(C)C1=C2N=C(C=C(N2N=C1)NCC3=CC=CC=C3)NCCCCCCN
# How it was run: as §1
# [13] = compound: CC(C)C[C@@H](C=O)NC(=O)[C@H](CC(C)C)NC(=O)[C@H](CC(C)C)NC(=O)OCc1ccccc1
# How it was run: as §1
# pinometostat = compound: CC(C)N(C[C@H]1O[C@@H](n2cnc3c(N)ncnc32)[C@H](O)[C@@H]1O)[C@H]1C[C@@H](CCc2nc3cc(C(C)(C)C)ccc3[nH]2)C1 [pinometostat]
# How it was run: as §1
# [14] = compound: CC1=C(C(CC(=O)N1)C2=CC=C(C=C2)C(F)(F)F)C(=O)NC3=C(C=C4C(=C3)C=NN4)F
# How it was run: as §1
# [15] = compound: CC1=C(C2=C(C=C1)C(=O)C3=CC=CC=C3N2CCCN)C
# How it was run: as §1
Target,log2 fold change (erlotinib),log2 fold change [1],log2 fold change [2],log2 fold change [3],log2 fold change [4],log2 fold change [5],log2 fold change [6],log2 fold change [7],log2 fold change [8],log2 fold change [9],log2 fold change (IRAK-1-4 Inhibitor I),log2 fold change (ibrutinib),log2 fold change [10],log2 fold change (ralimetinib),log2 fold change [11],log2 fold change [12],log2 fold change [13],log2 fold change (pinometostat),log2 fold change [14],log2 fold change [15]
UBE2K (UniProt P61086),inactive: -0.005,inactive: 0.015,inactive: 0.121,inactive: -0.036,inactive: -0.045,inactive: -0.009,inactive: 0.119,inactive: -0.002,inactive: -0.009,inactive: 0.037,inactive: 0.043,inactive: 0.033,inactive: 0.056,inactive: 0.067,inactive: -0.066,inactive: -0.001,inactive: -0.145,inactive: -0.099,inactive: 0.014,inactive: -0.008
UBE2J1 (UniProt Q9Y385),inactive: 0.053,inactive: 0.063,inactive: -0.033,inactive: 0.045,inactive: 0.148,inactive: 0.054,inactive: 0.043,inactive: 0.036,inactive: -0.097,inactive: 0.012,inactive: -0.447,inactive: 0.013,inactive: -0.077,inactive: -0.02,inactive: -0.106,inactive: -0.284,inactive: 0.188,inactive: 0.096,–,inactive: -0.047
TUSC3 isoform 2 (UniProt Q13454),inactive: -0.017,inactive: -0.094,inactive: 0.01,inactive: 0.016,inactive: 0.012,inactive: 0.101,inactive: -0.052,inactive: -0.079,inactive: 0.037,inactive: -0.012,inactive: -0.026,inactive: 0.084,inactive: 0.035,inactive: 0.026,inactive: -0.01,inactive: -0.056,inactive: 0.118,inactive: 0.143,inactive: 0.05,inactive: 0.001
UBE2D3 isoform 3 (UniProt P61077),inactive: 0,inactive: 0.064,inactive: 0.105,inactive: -0.007,inactive: 0.033,inactive: 0.024,inactive: 0.023,inactive: 0.054,inactive: -0.009,inactive: 0.001,inactive: 0.093,inactive: -0.024,inactive: -0.01,inactive: 0.016,inactive: -0.027,inactive: -0.022,inactive: 0.083,inactive: 0.011,inactive: 0.007,inactive: -0.047
TXNL1 (UniProt O43396),inactive: -0.012,inactive: 0.096,inactive: 0.009,inactive: -0.031,inactive: -0.011,inactive: -0.018,inactive: 0.014,inactive: 0.016,inactive: -0.001,inactive: -0.077,inactive: -0.035,inactive: -0.014,inactive: -0.001,inactive: -0.003,inactive: -0.03,inactive: -0.052,active: 0.278,inactive: -0.029,–,inactive: 0.038
TTI1 (UniProt O43156),inactive: -0.078,inactive: 0.115,inactive: -0.015,inactive: -0.045,inactive: 0.057,inactive: 0.028,inactive: 0.029,inactive: 0.008,inactive: 0.019,inactive: 0.028,inactive: -0.012,inactive: 0.009,inactive: -0.065,inactive: 0.1,inactive: -0.113,inactive: -0.059,inactive: 0.016,inactive: 0.13,–,inactive: 0.074
TTC9C (UniProt Q8N5M4),inactive: -0.055,inactive: 0.105,inactive: 0.013,inactive: -0.007,inactive: 0.047,inactive: 0.008,inactive: 0.048,inactive: 0.01,inactive: 0.018,inactive: 0.021,inactive: 0.041,inactive: 0.031,inactive: -0.011,inactive: 0.031,inactive: -0.06,inactive: -0.017,inactive: -0.032,inactive: -0.025,inactive: -0.013,inactive: 0.103
TSFM (UniProt P43897),inactive: 0.037,inactive: -0.004,inactive: 0.302,inactive: -0.206,inactive: 0.189,inactive: 0.044,inactive: 0.11,inactive: -0.069,inactive: -0.016,inactive: 0.095,inactive: -0.065,inactive: -0.134,inactive: -0.067,inactive: 0.011,inactive: -0.254,inactive: 0.069,inactive: -0.058,inactive: -0.08,–,inactive: 0.258
TUBA8 (UniProt Q9NY65),inactive: 0.12,inactive: -0.356,inactive: -0.522,inactive: 0.232,inactive: -0.021,inactive: 0.032,inactive: -0.261,inactive: 0.113,inactive: -0.117,inactive: 0.028,inactive: -0.205,inactive: -0.05,inactive: 0.192,inactive: 0.143,inactive: 0.128,inactive: -0.144,inactive: 0.221,inactive: 0.512,inactive: 0.182,inactive: -0.16
TXN (UniProt P10599),inactive: -0.031,inactive: -0.023,inactive: 0.057,inactive: 0.02,inactive: -0.069,inactive: -0.012,inactive: -0.022,inactive: 0.003,inactive: 0.02,inactive: 0.039,inactive: 0.044,inactive: -0.034,inactive: 0.006,inactive: -0.044,inactive: 0.065,inactive: 0.14,inactive: 0.013,inactive: -0.031,inactive: 0.015,inactive: -0.06
UBAP2L isoform 1 (UniProt Q14157),inactive: -0.126,inactive: 0.013,inactive: -0.003,inactive: 0.083,inactive: -0.06,inactive: -0.023,inactive: 0.04,inactive: -0.024,inactive: -0.082,inactive: 0.017,inactive: 0.076,inactive: -0.006,inactive: 0.007,inactive: -0.025,inactive: 0.016,inactive: 0.103,inactive: 0.029,inactive: -0.031,–,inactive: 0.055
UBE2I (UniProt P63279),inactive: -0.031,inactive: 0.08,inactive: 0.083,inactive: -0.026,inactive: -0.02,inactive: 0.005,inactive: 0.016,inactive: -0.003,inactive: 0.02,inactive: 0.007,inactive: 0.028,inactive: 0,inactive: 0.023,inactive: -0.062,inactive: -0.042,inactive: -0.009,inactive: -0.001,inactive: -0.029,inactive: -0.021,inactive: 0.051
TXNDC15 (UniProt Q96J42),inactive: -0.085,inactive: 0.031,inactive: 0.015,inactive: -0.007,inactive: -0.125,inactive: 0.054,inactive: -0.055,inactive: -0.114,inactive: 0.128,inactive: 0.049,inactive: 0.091,inactive: 0.039,inactive: 0.066,inactive: -0.024,inactive: 0.036,inactive: -0.021,inactive: 0.252,inactive: -0.109,inactive: 0.061,inactive: -0.009
TYW1 (UniProt Q9NV66),inactive: -0.045,inactive: 0.012,inactive: 0.055,inactive: 0.057,inactive: 0.003,inactive: 0.009,inactive: 0.042,inactive: 0.057,inactive: -0.041,inactive: 0.022,inactive: -0.031,inactive: -0.043,inactive: -0.096,inactive: 0.044,inactive: 0,inactive: 0.03,inactive: -0.056,inactive: 0.005,–,inactive: 0.051
UBE2Q1 (UniProt Q7Z7E8),inactive: 0.058,inactive: 0.006,inactive: 0.059,inactive: 0.017,inactive: 0.019,inactive: 0.061,inactive: 0.014,inactive: 0.026,inactive: -0.016,inactive: -0.037,inactive: 0.024,inactive: -0.012,inactive: 0.029,inactive: -0.015,inactive: -0.062,inactive: -0.192,inactive: -0.11,inactive: 0.005,–,inactive: -0.006
TUBGCP3 (UniProt Q96CW5),inactive: -0.025,inactive: 0.037,inactive: -0.15,inactive: 0.094,inactive: 0.028,inactive: -0.031,inactive: -0.068,inactive: 0.106,inactive: -0.146,inactive: -0.102,inactive: -0.14,inactive: -0.186,inactive: -0.043,inactive: 0.11,inactive: 0.005,inactive: -0.078,inactive: 0.234,inactive: 0.149,inactive: -0.056,inactive: 0.196

# Another view of part of the listing above.
Target	log2 fold change (erlotinib)	log2 fold change [1]	log2 fold change [2]	log2 fold change [3]	log2 fold change [4]	log2 fold change [5]	log2 fold change [6]	log2 fold change [7]	log2 fold change [8]	log2 fold change [9]	log2 fold change (IRAK-1-4 Inhibitor I)	log2 fold change (ibrutinib)	log2 fold change [10]	log2 fold change (ralimetinib)	log2 fold change [11]	log2 fold change [12]	log2 fold change [13]	log2 fold change (pinometostat)	log2 fold change [14]	log2 fold change [15]
TUSC3 isoform 2 (UniProt Q13454)	inactive: -0.017	inactive: -0.094	inactive: 0.01	inactive: 0.016	inactive: 0.012	inactive: 0.101	inactive: -0.052	inactive: -0.079	inactive: 0.037	inactive: -0.012	inactive: -0.026	inactive: 0.084	inactive: 0.035	inactive: 0.026	inactive: -0.01	inactive: -0.056	inactive: 0.118	inactive: 0.143	inactive: 0.05	inactive: 0.001
TSFM (UniProt P43897)	inactive: 0.037	inactive: -0.004	inactive: 0.302	inactive: -0.206	inactive: 0.189	inactive: 0.044	inactive: 0.11	inactive: -0.069	inactive: -0.016	inactive: 0.095	inactive: -0.065	inactive: -0.134	inactive: -0.067	inactive: 0.011	inactive: -0.254	inactive: 0.069	inactive: -0.058	inactive: -0.08	–	inactive: 0.258
